Laboratory results: the supplement of paper PMC6411743
± gives the standard deviation of the averaged measurements. This is a selection; strong and weak results do not stand in their true shares.

By UniProt entry, the sequences of proteins in these tests, tags left out. Where a name states a change or a piece, a line headed by the entry shows the natural chain unless it says otherwise.
UniProt P06748, whole entry: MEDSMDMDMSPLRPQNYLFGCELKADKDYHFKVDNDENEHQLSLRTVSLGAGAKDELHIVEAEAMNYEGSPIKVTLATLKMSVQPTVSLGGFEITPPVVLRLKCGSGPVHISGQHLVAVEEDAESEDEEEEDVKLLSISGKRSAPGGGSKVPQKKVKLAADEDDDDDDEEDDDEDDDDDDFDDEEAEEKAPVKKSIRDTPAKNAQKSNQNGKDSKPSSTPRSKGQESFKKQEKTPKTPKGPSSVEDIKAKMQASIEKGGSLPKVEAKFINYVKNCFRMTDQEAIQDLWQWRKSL
UniProt Q71RG4: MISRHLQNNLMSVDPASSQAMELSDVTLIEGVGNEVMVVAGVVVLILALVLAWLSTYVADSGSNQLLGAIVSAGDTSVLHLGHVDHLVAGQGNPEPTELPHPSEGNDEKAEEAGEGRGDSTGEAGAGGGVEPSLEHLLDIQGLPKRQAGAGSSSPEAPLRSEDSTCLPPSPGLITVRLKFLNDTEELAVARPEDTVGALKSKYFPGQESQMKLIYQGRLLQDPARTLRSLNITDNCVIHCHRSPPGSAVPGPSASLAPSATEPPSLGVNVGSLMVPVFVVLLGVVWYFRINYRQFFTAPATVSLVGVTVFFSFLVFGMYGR
UniProt P12694: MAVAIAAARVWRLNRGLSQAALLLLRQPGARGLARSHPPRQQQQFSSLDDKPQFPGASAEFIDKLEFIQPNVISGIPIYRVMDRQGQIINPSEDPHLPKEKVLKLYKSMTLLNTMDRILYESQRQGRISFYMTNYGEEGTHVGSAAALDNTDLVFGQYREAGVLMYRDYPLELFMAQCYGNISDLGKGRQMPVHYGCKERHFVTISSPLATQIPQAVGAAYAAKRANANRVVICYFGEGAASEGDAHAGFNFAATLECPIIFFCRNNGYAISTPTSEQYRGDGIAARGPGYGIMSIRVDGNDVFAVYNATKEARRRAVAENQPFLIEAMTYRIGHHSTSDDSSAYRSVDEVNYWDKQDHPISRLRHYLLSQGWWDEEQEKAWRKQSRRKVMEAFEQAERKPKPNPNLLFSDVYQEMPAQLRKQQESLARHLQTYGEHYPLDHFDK
UniProt O75387: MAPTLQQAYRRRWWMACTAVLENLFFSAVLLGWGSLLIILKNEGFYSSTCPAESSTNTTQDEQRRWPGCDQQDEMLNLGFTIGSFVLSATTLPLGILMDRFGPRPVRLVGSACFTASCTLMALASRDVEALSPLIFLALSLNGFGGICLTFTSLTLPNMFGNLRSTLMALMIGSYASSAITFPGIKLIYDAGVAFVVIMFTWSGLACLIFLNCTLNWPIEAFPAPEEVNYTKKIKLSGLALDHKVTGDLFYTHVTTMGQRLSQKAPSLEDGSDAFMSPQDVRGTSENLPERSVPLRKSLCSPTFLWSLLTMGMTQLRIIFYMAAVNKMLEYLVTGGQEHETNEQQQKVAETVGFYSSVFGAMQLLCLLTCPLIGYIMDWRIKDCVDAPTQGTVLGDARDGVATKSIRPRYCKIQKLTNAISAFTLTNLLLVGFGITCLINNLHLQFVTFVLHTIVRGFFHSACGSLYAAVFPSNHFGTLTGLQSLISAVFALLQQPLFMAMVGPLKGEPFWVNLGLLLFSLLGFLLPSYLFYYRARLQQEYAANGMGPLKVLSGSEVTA
UniProt P55786: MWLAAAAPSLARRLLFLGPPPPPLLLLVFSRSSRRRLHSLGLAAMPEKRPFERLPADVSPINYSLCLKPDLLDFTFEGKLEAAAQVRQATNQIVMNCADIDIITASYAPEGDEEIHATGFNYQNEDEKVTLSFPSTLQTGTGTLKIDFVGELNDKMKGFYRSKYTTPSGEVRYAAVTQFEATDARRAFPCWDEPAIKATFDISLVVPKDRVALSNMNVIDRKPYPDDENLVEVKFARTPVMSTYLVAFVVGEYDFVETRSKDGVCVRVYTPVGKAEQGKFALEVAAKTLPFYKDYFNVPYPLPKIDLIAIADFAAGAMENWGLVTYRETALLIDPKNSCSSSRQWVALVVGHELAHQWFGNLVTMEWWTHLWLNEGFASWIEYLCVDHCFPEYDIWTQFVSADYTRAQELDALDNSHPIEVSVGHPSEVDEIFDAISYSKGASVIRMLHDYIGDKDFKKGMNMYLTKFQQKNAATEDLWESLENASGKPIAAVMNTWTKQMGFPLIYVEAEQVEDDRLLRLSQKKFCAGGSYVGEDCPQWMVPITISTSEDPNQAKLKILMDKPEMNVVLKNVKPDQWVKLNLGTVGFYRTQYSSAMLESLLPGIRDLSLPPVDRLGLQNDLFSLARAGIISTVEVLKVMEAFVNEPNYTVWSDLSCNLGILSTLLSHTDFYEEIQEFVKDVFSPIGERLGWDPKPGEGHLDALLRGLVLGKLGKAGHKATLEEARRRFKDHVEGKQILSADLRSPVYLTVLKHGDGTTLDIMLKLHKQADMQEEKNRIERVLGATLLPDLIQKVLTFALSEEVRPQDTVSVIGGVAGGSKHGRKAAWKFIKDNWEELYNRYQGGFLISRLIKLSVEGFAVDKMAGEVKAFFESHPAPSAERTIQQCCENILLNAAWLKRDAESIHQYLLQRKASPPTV
UniProt O43913: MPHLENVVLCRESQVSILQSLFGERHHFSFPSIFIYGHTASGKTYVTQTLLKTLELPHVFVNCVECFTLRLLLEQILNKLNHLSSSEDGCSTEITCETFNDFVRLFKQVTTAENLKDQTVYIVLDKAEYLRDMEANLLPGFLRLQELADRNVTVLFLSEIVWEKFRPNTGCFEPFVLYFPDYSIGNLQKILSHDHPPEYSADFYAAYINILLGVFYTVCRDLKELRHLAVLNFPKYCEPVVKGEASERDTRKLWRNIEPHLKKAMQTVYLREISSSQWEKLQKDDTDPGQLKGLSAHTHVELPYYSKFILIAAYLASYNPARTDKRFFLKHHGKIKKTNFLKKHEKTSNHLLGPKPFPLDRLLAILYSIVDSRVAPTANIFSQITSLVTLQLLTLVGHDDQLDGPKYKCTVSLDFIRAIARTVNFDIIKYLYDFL
UniProt P52747: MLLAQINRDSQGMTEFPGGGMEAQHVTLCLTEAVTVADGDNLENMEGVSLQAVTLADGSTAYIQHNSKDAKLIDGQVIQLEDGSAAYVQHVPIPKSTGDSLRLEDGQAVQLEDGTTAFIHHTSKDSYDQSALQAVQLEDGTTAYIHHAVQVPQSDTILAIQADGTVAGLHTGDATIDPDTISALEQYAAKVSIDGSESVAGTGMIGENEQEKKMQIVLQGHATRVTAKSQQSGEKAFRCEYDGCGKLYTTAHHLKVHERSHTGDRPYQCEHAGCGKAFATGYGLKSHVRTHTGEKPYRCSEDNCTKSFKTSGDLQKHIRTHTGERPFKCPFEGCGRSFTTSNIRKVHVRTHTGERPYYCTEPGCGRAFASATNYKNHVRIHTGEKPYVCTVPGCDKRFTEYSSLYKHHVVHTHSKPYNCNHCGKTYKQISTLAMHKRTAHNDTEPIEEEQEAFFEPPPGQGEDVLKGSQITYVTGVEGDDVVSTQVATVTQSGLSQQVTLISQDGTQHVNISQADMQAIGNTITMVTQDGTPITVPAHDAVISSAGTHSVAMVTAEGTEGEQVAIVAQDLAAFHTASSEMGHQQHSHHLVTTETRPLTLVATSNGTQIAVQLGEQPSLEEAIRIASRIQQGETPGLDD
UniProt E9PAV3, whole entry, looked up: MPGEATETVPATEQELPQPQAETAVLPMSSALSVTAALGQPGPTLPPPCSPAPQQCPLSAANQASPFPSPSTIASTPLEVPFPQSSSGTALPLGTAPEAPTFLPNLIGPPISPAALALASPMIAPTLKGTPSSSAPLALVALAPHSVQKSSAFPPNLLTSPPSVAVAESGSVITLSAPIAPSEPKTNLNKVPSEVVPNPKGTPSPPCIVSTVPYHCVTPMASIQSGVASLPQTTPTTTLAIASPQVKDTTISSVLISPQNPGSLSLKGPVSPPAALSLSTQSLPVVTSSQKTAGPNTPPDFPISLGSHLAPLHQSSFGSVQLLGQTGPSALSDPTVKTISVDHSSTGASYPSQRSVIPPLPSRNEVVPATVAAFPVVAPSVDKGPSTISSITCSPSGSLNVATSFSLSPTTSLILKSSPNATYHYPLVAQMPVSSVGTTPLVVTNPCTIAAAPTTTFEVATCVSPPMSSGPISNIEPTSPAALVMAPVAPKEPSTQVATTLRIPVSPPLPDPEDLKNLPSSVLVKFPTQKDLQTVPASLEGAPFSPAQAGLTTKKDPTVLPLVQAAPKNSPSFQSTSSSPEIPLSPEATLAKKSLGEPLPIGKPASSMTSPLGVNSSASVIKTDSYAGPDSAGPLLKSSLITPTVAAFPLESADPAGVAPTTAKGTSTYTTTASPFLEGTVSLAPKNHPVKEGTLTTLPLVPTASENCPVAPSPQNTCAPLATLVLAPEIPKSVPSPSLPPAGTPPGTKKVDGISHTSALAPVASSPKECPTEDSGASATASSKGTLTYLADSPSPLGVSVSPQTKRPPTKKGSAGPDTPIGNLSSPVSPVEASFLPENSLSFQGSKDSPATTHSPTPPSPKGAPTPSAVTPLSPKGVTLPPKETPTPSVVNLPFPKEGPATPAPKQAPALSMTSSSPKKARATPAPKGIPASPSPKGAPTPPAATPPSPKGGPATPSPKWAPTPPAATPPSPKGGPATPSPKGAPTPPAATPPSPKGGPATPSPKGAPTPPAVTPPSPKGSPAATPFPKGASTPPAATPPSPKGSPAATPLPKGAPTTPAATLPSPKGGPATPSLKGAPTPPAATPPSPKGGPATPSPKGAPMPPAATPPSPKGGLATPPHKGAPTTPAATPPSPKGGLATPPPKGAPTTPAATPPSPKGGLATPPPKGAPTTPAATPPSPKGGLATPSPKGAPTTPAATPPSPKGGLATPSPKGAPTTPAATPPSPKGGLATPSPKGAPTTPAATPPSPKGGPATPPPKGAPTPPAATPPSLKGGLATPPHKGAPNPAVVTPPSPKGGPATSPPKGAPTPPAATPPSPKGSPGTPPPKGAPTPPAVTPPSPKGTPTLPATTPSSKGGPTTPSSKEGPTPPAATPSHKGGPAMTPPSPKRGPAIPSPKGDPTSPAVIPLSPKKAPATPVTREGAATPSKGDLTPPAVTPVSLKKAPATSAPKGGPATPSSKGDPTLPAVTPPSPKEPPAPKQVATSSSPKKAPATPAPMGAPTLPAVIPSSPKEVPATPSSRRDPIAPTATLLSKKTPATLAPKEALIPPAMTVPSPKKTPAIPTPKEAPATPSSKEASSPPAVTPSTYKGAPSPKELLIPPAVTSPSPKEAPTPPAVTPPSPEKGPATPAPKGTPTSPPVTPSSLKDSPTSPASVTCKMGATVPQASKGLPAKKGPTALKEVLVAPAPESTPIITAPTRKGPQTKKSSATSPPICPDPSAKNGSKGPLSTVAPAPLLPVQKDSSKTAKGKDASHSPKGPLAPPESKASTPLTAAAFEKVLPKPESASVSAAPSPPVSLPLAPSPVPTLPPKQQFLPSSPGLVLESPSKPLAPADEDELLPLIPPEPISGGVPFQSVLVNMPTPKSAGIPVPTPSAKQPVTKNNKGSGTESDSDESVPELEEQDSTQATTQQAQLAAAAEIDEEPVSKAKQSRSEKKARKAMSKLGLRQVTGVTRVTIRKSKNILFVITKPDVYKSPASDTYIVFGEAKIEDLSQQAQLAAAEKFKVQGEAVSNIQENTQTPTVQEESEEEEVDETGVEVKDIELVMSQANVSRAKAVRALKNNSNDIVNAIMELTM
UniProt Q13435: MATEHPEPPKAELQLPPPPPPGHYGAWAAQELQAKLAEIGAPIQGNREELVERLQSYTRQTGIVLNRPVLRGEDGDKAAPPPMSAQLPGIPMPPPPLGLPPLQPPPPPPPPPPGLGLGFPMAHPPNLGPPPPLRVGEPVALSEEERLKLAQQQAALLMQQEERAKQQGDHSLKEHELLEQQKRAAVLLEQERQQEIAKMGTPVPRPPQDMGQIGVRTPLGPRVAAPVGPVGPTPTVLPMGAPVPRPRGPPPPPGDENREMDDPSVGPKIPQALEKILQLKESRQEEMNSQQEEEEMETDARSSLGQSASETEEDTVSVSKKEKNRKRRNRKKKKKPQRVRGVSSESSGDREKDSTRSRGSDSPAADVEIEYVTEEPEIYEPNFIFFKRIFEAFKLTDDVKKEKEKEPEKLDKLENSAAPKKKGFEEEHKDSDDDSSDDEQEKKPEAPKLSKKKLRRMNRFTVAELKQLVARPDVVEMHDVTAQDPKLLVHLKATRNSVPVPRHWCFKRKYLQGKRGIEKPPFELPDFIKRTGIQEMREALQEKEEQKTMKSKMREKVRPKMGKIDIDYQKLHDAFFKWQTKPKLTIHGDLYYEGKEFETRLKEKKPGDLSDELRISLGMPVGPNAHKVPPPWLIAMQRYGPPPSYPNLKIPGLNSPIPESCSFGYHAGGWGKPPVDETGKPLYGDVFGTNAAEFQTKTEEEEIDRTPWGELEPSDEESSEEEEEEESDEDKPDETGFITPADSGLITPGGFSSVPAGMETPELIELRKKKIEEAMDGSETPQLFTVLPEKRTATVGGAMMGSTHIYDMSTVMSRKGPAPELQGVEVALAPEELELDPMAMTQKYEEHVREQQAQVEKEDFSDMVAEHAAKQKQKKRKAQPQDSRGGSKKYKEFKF

Compound: Nc1ncnc2c1ncn2[C@@H]1O[C@H](COP(=O)(O)OP(=O)(O)NP(=O)(O)O)[C@@H](O)[C@H]1O [adenylyl imidodiphosphate]
Test: NP40-soluble protein abundance relative to vehicle (solubility fold change) (ratio); higher = more soluble protein in presence of AMP-PNP
Procedure, shortened: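 Eight concentrations, 0.1 to 10 mM, were tested on Jurkat crude lysate for 10 min at room temperature and then 3 min at 37 °C, in three independent experiments. The lysate was solubilised with 0.8% NP40 and benzonase, ultracentrifuged, and the supernatant TMT-labelled for LC-MS/MS. Each value is the fold change against the detergent-processed vehicle in its own replicate, from vsn-normalised intensities.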

Target	NP40-soluble protein abundance (concentration: 1mM)	NP40-soluble protein abundance (concentration: 2mM)	NP40-soluble protein abundance (concentration: 4mM)	NP40-soluble protein abundance (concentration: 6mM)	NP40-soluble protein abundance (concentration: 8mM)	NP40-soluble protein abundance (concentration: 10mM)
E9PJ55 and related entries (UniProt Q9NUJ3)	0.997 ± 0.04	0.969 ± 0.026	0.997 ± 0.035	0.957 ± 0.078	0.972 ± 0.058	0.954 ± 0.069
F5GZ82 and related entries (UniProt Q9NP50)	0.965 ± 0.054	0.972 ± 0.014	0.963 ± 0.032	0.949 ± 0.029	0.949 ± 0.019	0.989 ± 0.041
F5H5D3 and related entries (UniProt Q9BQE3)	0.99 ± 0.012	0.933 ± 0.071	0.94 ± 0.036	0.93 ± 0.052	0.94 ± 0.072	0.92 ± 0.076
F8W8W7 and related entries (UniProt O43493)	0.994 ± 0.017	1.05 ± 0.021	1.006 ± 0.0057	0.989 ± 0.038	0.966 ± 0.022	1.009 ± 0.0041
E9PP50 and related entries (UniProt P23528)	1.01 ± 0.018	0.983 ± 0.017	0.949 ± 0.036	0.9734 ± 0.0025	0.957 ± 0.019	0.935 ± 0.044
F5GZ78 and related entries (UniProt P49023)	1.01 ± 0.055	1.04 ± 0.055	1.03 ± 0.061	0.9664 ± 0.0023	0.956 ± 0.018	0.992 ± 0.075
E5RI98 and related entries (UniProt P06748)	0.959 ± 0.13	1.11 ± 0.15	0.987 ± 0.13	1.08 ± 0.11	1.07 ± 0.088	1.12 ± 0.1
F8VVZ0 and related entries (UniProt P61020)	1.03 ± 0.028	0.993 ± 0.013	1.01 ± 0.024	1.07 ± 0.026	1.08 ± 0.064	1.05 ± 0.018
E9PCD7 and related entries (UniProt Q9Y2E5)	0.987 ± 0.0034	0.998 ± 0.042	0.9932 ± 0.0061	0.986 ± 0.022	1.01 ± 0.018	0.985 ± 0.026
E7ESS3 and related entries (UniProt Q71RG4)	1.01 ± 0.037	1.03 ± 0.045	1 ± 0.039	0.996 ± 0.012	1.01 ± 0.037	1 ± 0.032
F5H5P2 and related entries (UniProt P12694+F5H5P2)	1.04 ± 0.076	1.05 ± 0.057	1.06 ± 0.048	1.04 ± 0.074	1.04 ± 0.074	1.07 ± 0.07
F8W0Q9 and related entries (UniProt Q8NEY8)	1 ± 0.012	1.06 ± 0.068	0.981 ± 0.013	0.999 ± 0.019	0.98 ± 0.015	1.04 ± 0.032
F5H5I6 and related entries (UniProt Q12849)	1.01 ± 0.018	1.01 ± 0.018	1.01 ± 0.014	0.976 ± 0.027	0.972 ± 0.013	0.95 ± 0.018
G3V0I5 and related entries (UniProt P49821)	0.948 ± 0.029	0.929 ± 0.035	0.966 ± 0.08	1.01 ± 0.027	1.02 ± 0.04	1.02 ± 0.13
F2Z2Y3 and related entries (UniProt Q9H8W3)	1.039 ± 0.0016	1.02 ± 0.0023	1.023 ± 0.0026	1.04 ± 0.062	1.01 ± 0.012	1.03 ± 0.026
F8W922 and related entries (UniProt Q9H7P6)	1.01 ± 0.013	0.98 ± 0.022	0.989 ± 0.02	1.02 ± 0.032	1.02 ± 0.016	1.02 ± 0.013
E9PJ68 and related entries (UniProt O75387)	1.011 ± 0.0075	1.01 ± 0.018	1 ± 0.014	1.009 ± 0.0095	1.02 ± 0.012	1.08 ± 0.026
E7EQ34 and related entries (UniProt O14653+E7EQ34)	1.01 ± 0.034	1.08 ± 0.09	1.04 ± 0.033	1.03 ± 0.031	0.998 ± 0.039	1.08 ± 0.063
F8VQE1 and related entries (UniProt Q9UHB6)	1.17 ± 0.073	1.28 ± 0.2	1.33 ± 0.12	1.39 ± 0.18	1.37 ± 0.17	1.58 ± 0.21
E9PPG8 and related entries (UniProt Q53FT3)	0.97 ± 0.019	0.951 ± 0.026	0.952 ± 0.016	0.973 ± 0.014	0.98 ± 0.024	0.9496 ± 0.0041
F5GWU8 and related entries (UniProt P61224)	1.04 ± 0.025	1.04 ± 0.027	1.02 ± 0.029	1 ± 0.03	0.986 ± 0.011	1.01 ± 0.038
F6V2D4 and related entries (UniProt O00214)	0.99 ± 0.029	0.978 ± 0.044	0.994 ± 0.02	1 ± 0.025	1.02 ± 0.015	1.02 ± 0.021
F6S8M0 and related entries (UniProt P15586)	0.935 ± 0.055	0.994 ± 0.064	0.927 ± 0.046	0.974 ± 0.026	0.924 ± 0.033	0.959 ± 0.032
G3V3H3 and related entries (UniProt Q07866)	1.01 ± 0.023	1.04 ± 0.022	0.981 ± 0.013	0.985 ± 0.029	0.937 ± 0.03	0.974 ± 0.017
E9PLK3 and related entries (UniProt P55786)	0.954 ± 0.033	0.847 ± 0.1	0.941 ± 0.022	0.913 ± 0.026	0.941 ± 0.024	0.881 ± 0.02
F5H514 and related entries (UniProt O95267)	1 ± 0.05	1.01 ± 0.058	0.995 ± 0.011	0.976 ± 0.061	0.998 ± 0.038	1.01 ± 0.049
E9PE19 and related entries (UniProt Q12830)	1.04 ± 0.053	1.11 ± 0.054	1.08 ± 0.022	1.09 ± 0.048	1.05 ± 0.035	1.12 ± 0.041
E9PKQ5 and related entries (UniProt Q9GZT6)	1.02 ± 0.036	1.05 ± 0.029	1.01 ± 0.064	0.994 ± 0.035	0.933 ± 0.02	0.959 ± 0.037

Target	NP40-soluble protein abundance (concentration: 1mM)	NP40-soluble protein abundance (concentration: 2mM)	NP40-soluble protein abundance (concentration: 4mM)	NP40-soluble protein abundance (concentration: 6mM)	NP40-soluble protein abundance (concentration: 8mM)	NP40-soluble protein abundance (concentration: 10mM)
G3V0H0 and related entries (UniProt O43913)	0.9472 ± 0.007	0.88 ± 0.088	0.944 ± 0.06	0.946 ± 0.033	0.957 ± 0.024	0.949 ± 0.036
F5H0F9 and related entries (UniProt Q9UJX4)	0.987 ± 0.014	0.919 ± 0.11	0.973 ± 0.04	0.986 ± 0.023	0.977 ± 0.067	0.96 ± 0.07
F8VU11 and related entries (UniProt Q6NWY9)	0.9863 ± 0.0038	1.02 ± 0.032	1.01 ± 0.053	1.01 ± 0.087	1.01 ± 0.072	1.02 ± 0.089
F5GXX5 and related entries (UniProt P61803)	0.905 ± 0.054	0.819 ± 0.048	0.914 ± 0.063	0.937 ± 0.085	0.998 ± 0.036	0.906 ± 0.074
E9PPZ9 and related entries (UniProt O43292)	0.995 ± 0.044	0.969 ± 0.039	1 ± 0.02	0.998 ± 0.1	1.01 ± 0.067	1.01 ± 0.047
E7EQI7 and related entries (UniProt Q12768)	0.998 ± 0.032	0.953 ± 0.036	0.994 ± 0.031	0.977 ± 0.04	1 ± 0.029	0.97 ± 0.019
E7EN86 and related entries (UniProt P52747)	0.99 ± 0.042	0.999 ± 0.043	0.994 ± 0.033	0.987 ± 0.031	1 ± 0.048	0.991 ± 0.045
E7EQV9 and related entries (UniProt P61313)	1.06 ± 0.1	0.959 ± 0.067	0.945 ± 0.07	0.92 ± 0.039	0.803 ± 0.046	0.985 ± 0.14
F8VQQ3 and related entries (UniProt Q9HB07)	1.04 ± 0.021	0.994 ± 0.027	1.03 ± 0.015	0.994 ± 0.02	1.01 ± 0.023	0.998 ± 0.05
F5H212 and related entries (UniProt P15822)	1.04 ± 0.1	1.08 ± 0.12	1.09 ± 0.2	1.13 ± 0.21	1.14 ± 0.27	1.25 ± 0.42
F5H7W8 and related entries (UniProt Q96C57)	1.17 ± 0.015	1.26 ± 0.088	1.25 ± 0.058	1.29 ± 0.047	1.34 ± 0.062	1.37 ± 0.12
E9PGT6 and related entries (UniProt Q99627)	1.05 ± 0.036	1.06 ± 0.016	1.04 ± 0.039	0.973 ± 0.049	0.991 ± 0.046	1 ± 0.036
E9PG15 and related entries (UniProt P27348)	0.984 ± 0.076	1.09 ± 0.13	0.991 ± 0.073	0.983 ± 0.085	0.973 ± 0.078	0.98 ± 0.12
F5GWA4 and related entries (UniProt Q9H3F6)	0.971 ± 0.032	0.989 ± 0.047	0.998 ± 0.035	0.988 ± 0.041	1 ± 0.013	0.995 ± 0.0062
F8VU90 and related entries (UniProt Q9NYL4)	1.01 ± 0.042	1.04 ± 0.043	1.07 ± 0.062	0.997 ± 0.031	0.999 ± 0.084	0.994 ± 0.12
F8WE26 and related entries (UniProt O75431)	1 ± 0.023	0.974 ± 0.041	0.995 ± 0.053	1.015 ± 0.0033	1.04 ± 0.036	0.995 ± 0.053
E7EVX2 and related entries (UniProt Q13439)	1.02 ± 0.02	1.07 ± 0.06	1.03 ± 0.024	0.98 ± 0.027	0.968 ± 0.027	0.982 ± 0.017
E9PAV3 and related entries (UniProt Q13765+H0YHX9+F8VZJ2+E9PAV3)	0.971 ± 0.054	1.02 ± 0.084	1.02 ± 0.06	1.11 ± 0.13	1.12 ± 0.066	1.25 ± 0.083
E9PJQ6 and related entries (UniProt Q8IUX1)	1.05 ± 0.013	1.05 ± 0.019	1.031 ± 0.0095	1 ± 0.035	1 ± 0.014	1 ± 0.015
E7EQT4 and related entries (UniProt Q9UKV3)	1.05 ± 0.061	1.1 ± 0.021	1.05 ± 0.07	1.03 ± 0.09	0.972 ± 0.04	1.04 ± 0.069
E7EVH9 and related entries (UniProt Q08623)	0.978 ± 0.01	0.953 ± 0.011	0.983 ± 0.024	1.02 ± 0.019	0.979 ± 0.013	0.977 ± 0.034
F8VUY8 and related entries (UniProt Q96QD8)	1 ± 0.015	1.07 ± 0.091	1 ± 0.022	0.967 ± 0.022	0.988 ± 0.014	0.989 ± 0.02
E7EM64 and related entries (UniProt Q7L5N1)	0.998 ± 0.019	0.9 ± 0.11	0.981 ± 0.046	0.953 ± 0.011	0.987 ± 0.024	0.936 ± 0.051
F8W8I6 and related entries (UniProt P31483)	0.996 ± 0.023	0.966 ± 0.047	0.955 ± 0.035	0.953 ± 0.015	0.928 ± 0.051	0.924 ± 0.045
E9PJ04 and related entries (UniProt Q13435)	1.03 ± 0.031	1.09 ± 0.062	1.046 ± 0.0081	1.09 ± 0.064	1.07 ± 0.048	1.14 ± 0.063
E9PGT1 and related entries (UniProt Q15631)	0.975 ± 0.049	0.951 ± 0.028	0.944 ± 0.048	0.974 ± 0.082	1.02 ± 0.059	0.993 ± 0.056
F8WF69 and related entries (UniProt P09496)	0.9494 ± 0.001	0.919 ± 0.057	0.873 ± 0.05	0.833 ± 0.033	0.806 ± 0.014	0.813 ± 0.018

Reformatted: entries from further up
Target | NP40-soluble protein abundance (concentration: 1mM) | NP40-soluble protein abundance (concentration: 2mM) | NP40-soluble protein abundance (concentration: 4mM) | NP40-soluble protein abundance (concentration: 6mM) | NP40-soluble protein abundance (concentration: 8mM) | NP40-soluble protein abundance (concentration: 10mM)
E9PGT6 and related entries (UniProt Q99627) | 1.05 ± 0.036 | 1.06 ± 0.016 | 1.04 ± 0.039 | 0.973 ± 0.049 | 0.991 ± 0.046 | 1 ± 0.036
E9PG15 and related entries (UniProt P27348) | 0.984 ± 0.076 | 1.09 ± 0.13 | 0.991 ± 0.073 | 0.983 ± 0.085 | 0.973 ± 0.078 | 0.98 ± 0.12
F5GWA4 and related entries (UniProt Q9H3F6) | 0.971 ± 0.032 | 0.989 ± 0.047 | 0.998 ± 0.035 | 0.988 ± 0.041 | 1 ± 0.013 | 0.995 ± 0.0062
F8VU90 and related entries (UniProt Q9NYL4) | 1.01 ± 0.042 | 1.04 ± 0.043 | 1.07 ± 0.062 | 0.997 ± 0.031 | 0.999 ± 0.084 | 0.994 ± 0.12
F8WE26 and related entries (UniProt O75431) | 1 ± 0.023 | 0.974 ± 0.041 | 0.995 ± 0.053 | 1.015 ± 0.0033 | 1.04 ± 0.036 | 0.995 ± 0.053
E7EVX2 and related entries (UniProt Q13439) | 1.02 ± 0.02 | 1.07 ± 0.06 | 1.03 ± 0.024 | 0.98 ± 0.027 | 0.968 ± 0.027 | 0.982 ± 0.017
E9PAV3 and related entries (UniProt Q13765+H0YHX9+F8VZJ2+E9PAV3) | 0.971 ± 0.054 | 1.02 ± 0.084 | 1.02 ± 0.06 | 1.11 ± 0.13 | 1.12 ± 0.066 | 1.25 ± 0.083
E9PJQ6 and related entries (UniProt Q8IUX1) | 1.05 ± 0.013 | 1.05 ± 0.019 | 1.031 ± 0.0095 | 1 ± 0.035 | 1 ± 0.014 | 1 ± 0.015
E7EQT4 and related entries (UniProt Q9UKV3) | 1.05 ± 0.061 | 1.1 ± 0.021 | 1.05 ± 0.07 | 1.03 ± 0.09 | 0.972 ± 0.04 | 1.04 ± 0.069
E7EVH9 and related entries (UniProt Q08623) | 0.978 ± 0.01 | 0.953 ± 0.011 | 0.983 ± 0.024 | 1.02 ± 0.019 | 0.979 ± 0.013 | 0.977 ± 0.034
